# Source: PubChem BioAssay AID330 (DTP/NCI, 2004)
# The list does not hold the whole screen: it gathers tests that were run many times, whatever their T/C, doses with no T/C, and many T/C values between a quarter and a half above the control. Further doses and runs are listed elsewhere. T/C is the treated group as % of the vehicle group. Some entries give survivors of the animals treated and no T/C: the source holds a T/C of zero for them, seemingly a mark for toxic or unscored doses. Some doses without a T/C left all or most animals alive at the check, yet need not have been tolerated: the source hardly ever lists a survival T/C far under the control, and the zero likely stands for such cases as well. Survivors were counted at the toxicity check, usually on the fifth day, unless a day is given; later deaths do not show. Schedule codes are those of the source, read here as Q, the interval in days (D) or hours (H), X, the number of doses. Some doses were run more than once; the values are given in rising order. Where survival is the endpoint, this PubChem deposit counts one and a half times the control or more as active, and values a quarter to a half above the control carry no call in these data; other NCI protocols may use other cut-offs. Some T/C values are followed by the survivors on the day toxicity was checked, most often the fifth; where none is given, no animal had died by that day.
# Tested on: P388 leukemia ip, CD2F1 mice, survival T/C
# Experiment: NCI In Vivo Anticancer Drug Screen. Data for tumor model P388 Leukemia (intraperitoneal) in CD2F1 (CDF1) mice
# Conditions: T/C endpoint: median survival time, higher T/C = longer survival
# [1] = dose: 50.0 mg/kg/injection, schedule: Q01DX005 (ip), vehicle: Klucel (hydroxypropylcellulose) (HPC)
# [2] = dose: 100.0 mg/kg/injection, schedule: Q01DX005 (ip), vehicle: Klucel (hydroxypropylcellulose) (HPC)
# [3] = dose: 200.0 mg/kg/injection, schedule: Q01DX005 (ip), vehicle: Klucel (hydroxypropylcellulose) (HPC)
# [4] = dose: 200.0 mg/kg/injection, schedule: Q01DX005 (ip), vehicle: saline
# [5] = dose: 12.5 mg/kg/injection, schedule: Q01DX009 (ip), vehicle: Klucel (hydroxypropylcellulose) (HPC)
# [6] = dose: 25.0 mg/kg/injection, schedule: Q04DX003 (ip), vehicle: water
# [7] = dose: 50.0 mg/kg/injection, schedule: Q04DX003 (ip), vehicle: water
# [8] = dose: 400.0 mg/kg/injection, schedule: Q04DX003 (ip), vehicle: saline
compound,measurement,setting,value
C[CH2][Sn]([CH2]C)[O][Sn]([Cl])([CH2]C)[CH2]C,survivor count,"dose: 25.0 mg/kg/injection, schedule: Q01DX005 (ip), vehicle: Klucel (hydroxypropylcellulose) (HPC)",1 of 6
same,survivor count,[1],0 of 6
same,survivor count,[2],0 of 6
same,survivor count,[3],0 of 6
COc1ccc(C[n+]2ccc3c([N+](=O)[O-])cccc3c2)cc1,T/C,"dose: 60.0 mg/kg/injection, schedule: Q01DX005 (ip), vehicle: saline + Tween-80 + alcohol",134 and 138 % of control
same,survivor count,"dose: 120.0 mg/kg/injection, schedule: Q01DX005 (ip), vehicle: saline + Tween-80 + alcohol",0 of 6
same,survivor count,"dose: 240.0 mg/kg/injection, schedule: Q01DX005 (ip), vehicle: saline + Tween-80 + alcohol",0 of 6
CN(C)CCN1c2ccccc2Oc2ccccc21,survivor count,[4],2 of 5
O=C(NCCF)Oc1ccc([N+](=O)[O-])cc1,survivor count,"dose: 37.5 mg/kg/injection, schedule: Q01DX005 (ip), vehicle: Klucel (hydroxypropylcellulose) (HPC)",0 of 6
same,survivor count,[1],3 of 6 and 4 of 6
same,survivor count,[2],1 of 6
same,survivor count,[3],0 of 6
O=C(Nc1ccccc1)c1nn(-c2cc(S(=O)(=O)[O-])ccc2Cl)[n+](-c2ccccc2Cl)n1,survivor count,"dose: 240.0 mg/kg/injection, schedule: Q01DX005 (ip), vehicle: Klucel (hydroxypropylcellulose) (HPC)",3 of 6
CCN(CC)CCOCCc1ccccc1,survivor count,"dose: 100.0 mg/kg/injection, schedule: Q01DX005 (ip), vehicle: saline with Tween-80",2 of 6
same,survivor count,"dose: 200.0 mg/kg/injection, schedule: Q01DX005 (ip), vehicle: saline with Tween-80",0 of 6
CCN(CC)[P+](c1cc(OC)ccc1OC)(N(CC)CC)N(CC)CC,T/C,"dose: 6.25 mg/kg/injection, schedule: Q01DX009 (ip), vehicle: Klucel (hydroxypropylcellulose) (HPC)",130 % of control [5 of 6 alive]
same,T/C,[5],139 % of control
same,survivor count,[5],6 of 6
same,survivor count,"dose: 50.0 mg/kg/injection, schedule: Q01DX009 (ip), vehicle: Klucel (hydroxypropylcellulose) (HPC)",0 of 6
O=C1c2sccc2C2NC12 (configuration not stated),survivor count,[4],5 of 6
CC(C)N1COCO[C@H]2CCC[C@@H]21,T/C,[1],129 % of control
same,survivor count,"dose: 400.0 mg/kg/injection, schedule: Q01DX001 (ip), vehicle: Klucel (hydroxypropylcellulose) (HPC)",0 of 6
CSc1nc(N)n2ncc(Br)c2n1,survivor count,"dose: 200.0 mg/kg/injection, schedule: Q04DX002 (ip), vehicle: saline with Tween-80",6 of 6
same,survivor count,"dose: 400.0 mg/kg/injection, schedule: Q04DX002 (ip), vehicle: saline with Tween-80",5 of 5
[Cl][Ru]([Cl])([Cl])([Cl])([Cl])[Cl],T/C,"dose: 12.5 mg/kg/injection, schedule: Q04DX003 (ip), vehicle: water",129 % of control
same,T/C,"dose: 25.0 mg/kg/injection, schedule: Q04DX003 (ip), vehicle: saline",136 % of control
same,T/C,[6],138 % of control
same,T/C,"dose: 50.0 mg/kg/injection, schedule: Q04DX003 (ip), vehicle: saline",127 % of control
same,T/C,[7],138 % of control
same,T/C,"dose: 100.0 mg/kg/injection, schedule: Q04DX003 (ip), vehicle: saline",127 % of control
same,survivor count,"dose: 100.0 mg/kg/injection, schedule: Q04DX003 (ip), vehicle: water",3 of 6
same,survivor count,"dose: 200.0 mg/kg/injection, schedule: Q04DX003 (ip), vehicle: saline",3 of 3
same,survivor count,"dose: 200.0 mg/kg/injection, schedule: Q04DX003 (ip), vehicle: water",0 of 6
same,survivor count,[8],3 of 3
c1ccc2c(c1)Cc1ccccc1N2CCN1CCCCC1,survivor count,[4],2 of 5
CCN1CCc2cccc3c2C1c1ccccc1CC3 (configuration not stated),survivor count,"dose: 200.0 mg/kg/injection, schedule: Q01DX001 (ip), vehicle: saline with Tween-80",2 of 6
COc1ccc(-c2c(-c3ccccc3)c(=O)oc3cc(OC)ccc23)cc1,survivor count,"dose: 60.0 mg/kg/injection, schedule: Q01DX005 (ip), vehicle: saline with Tween-80",6 of 6
same,survivor count,"dose: 240.0 mg/kg/injection, schedule: Q01DX005 (ip), vehicle: saline with Tween-80",4 of 4 and 6 of 6
CC(C)(C)CC(C)(C)C/C=C/C[N+](C)(C)C/C=C/CC(C)(C)CC(C)(C)C,survivor count,"dose: 50.0 mg/kg/injection, schedule: Q04DX002 (ip), vehicle: saline",2 of 6
same,survivor count,"dose: 100.0 mg/kg/injection, schedule: Q04DX002 (ip), vehicle: saline",0 of 6
same,survivor count,"dose: 200.0 mg/kg/injection, schedule: Q04DX002 (ip), vehicle: saline",1 of 6
same,survivor count,"dose: 400.0 mg/kg/injection, schedule: Q04DX002 (ip), vehicle: saline",1 of 6
CCN(CC)CCn1[nH]c2c3ccc(=O)cc3sc3c(NCCN)ccc1c32,survivor count,"dose: 25.0 mg/kg/injection, schedule: Q01DX005 (ip), vehicle: water",1 of 6 and 3 of 6
c1nnc(NCNc2nncs2)s1,survivor count,[8],4 of 6
CC(=O)NC(CCO)C(N)=O (configuration not stated),survivor count,"dose: 25.0 mg/kg/injection, schedule: Q01DX009 (ip), vehicle: water",6 of 6
c1ccc2c(c1)C1CCC2[n+]2ccccc21 (configuration not stated),survivor count,[1],0 of 5
same,survivor count,[2],0 of 5
same,survivor count,[3],0 of 5
COc1cccc2c1C(=O)c1c(O)c3c(c(O)c1C2=O)CC(O)(/C(C)=N/NC(=O)CC(=O)N/N=C(\C)C1(O)Cc2c(O)c4c(c(O)c2C(OC2CC(N)C(O)C(C)O2)C1)C(=O)c1c(OC)cccc1C4=O)CC3OC1CC(N)C(O)C(C)O1 (configuration not stated),T/C,"dose: 0.78 mg/kg/injection, schedule: Q01DX009 (ip), vehicle: water",125 % of control
same,T/C,"dose: 1.56 mg/kg/injection, schedule: Q01DX009 (ip), vehicle: water",132 % of control
same,survivor count,"dose: 12.5 mg/kg/injection, schedule: Q01DX009 (ip), vehicle: water",0 of 6
same,survivor count,[6],0 of 6
same,survivor count,[7],0 of 6
N#CC(C#N)=NO (tested in a mixture with another compound),survivor count,"dose: 50.0 mg/kg/injection, schedule: Q01DX009 (ip), vehicle: saline",6 of 6
same,survivor count,"dose: 200.0 mg/kg/injection, schedule: Q01DX009 (ip), vehicle: saline",4 of 6
CCO[C@H]1c2cc3c(cc2[C@@H](c2cc(OC)c(OC)c(OC)c2)[C@H]2C(=O)OC[C@@H]21)OCO3,survivor count,[3],4 of 6
Nn1cnnc1N/N=C\c1ccc(N(CCCl)CCCl)cc1,T/C,"dose: 25.0 mg/kg/injection, schedule: Q01DX009 (ip), vehicle: saline",140 and 146 % of control
